Measurements as given in PubChem BioAssay AID208 (DTP/NCI, 2004).
The list is a part of this screen's results and no random one: it is rich in T/C values a quarter to a half above the control, in often repeated tests (any T/C) and in doses without a T/C. Other doses and runs of a compound stand elsewhere. T/C gives the treated animals as a percentage of the vehicle group. Schedule codes are those of the source, taken here to give the interval after Q, in days (D) or hours (H), and the number of doses after X. Some T/C values are followed by the survivors on the day toxicity was checked, most often the fifth; without a count, all were alive then. Some entries were tested several times; their values stand side by side, smallest first. Some entries give survivors of the animals treated and no T/C: the source holds a T/C of zero for them, seemingly a mark for toxic or unscored doses. Survivors were counted at the toxicity check, usually on the fifth day, unless a day is given; later deaths do not show.

Test system: HT29 intrarenal xenograft, nude mice, tumor weight change
Assay: NCI In Vivo Anticancer Drug Screen. Data for tumor model HT29;CX-1 Human Adenocarcinoma (MER+) (intrarenal inoculation) in NU/NU BALB/C (nude) mice
Conditions: T/C endpoint: mean tumor weight change, higher T/C = larger tumour
Protocol: The antitumor activity of compounds was measured in mice bearing transplantable tumors. Survival or tumor size were measured and the results are expressed as the measurement made in the treated group (T) divided by the measurement made in the vehicle treated control group (C). The tumor model used in this assay is HT29;CX-1 Human Adenocarcinoma (MER+) (intrarenal inoculation) in NU/NU BALB/C (nude) mice

[1] = dose: 1200.0 mg/kg/injection, schedule: Q04DX004 (ip), vehicle: DMSO

`CCCCNc1ccc2nnc(C)n2n1` was tested, and the survivor count (dose: 300.0 mg/kg/injection, schedule: Q04DX004 (ip), vehicle: DMSO) was 3 of 6 on day 15, the survivor count (dose: 300.0 mg/kg/injection, schedule: Q04DX004 (ip), vehicle: sodium bicarbonate) was 3 of 6 on day 15 and the survivor count (dose: 600.0 mg/kg/injection, schedule: Q04DX004 (ip), vehicle: DMSO) was 0 of 6 on day 15. The survivor count (dose: 600.0 mg/kg/injection, schedule: Q04DX004 (ip), vehicle: sodium bicarbonate) was 1 of 6 on day 15, the survivor count [1] was 0 of 6 on day 15 and the survivor count (dose: 1200.0 mg/kg/injection, schedule: Q04DX004 (ip), vehicle: sodium bicarbonate) was 0 of 6 on day 15.
`O=C(O)[C@H](Cc1ccccc1)N1C(=O)c2ccccc2C1=O` was tested, and the T/C (dose: 600.0 mg/kg/injection, schedule: Q04DX004 (ip), vehicle: DMSO, evaluated on day 15) was 142 % of control and the survivor count [1] was 0 of 6 on day 15.
With `[Cl][Hg][Cl]` the survivor count (dose: 10.0 mg/kg/injection, schedule: Q04DX004 (ip), vehicle: saline) was 1 of 6 on day 15 and the survivor count (dose: 20.0 mg/kg/injection, schedule: Q04DX004 (ip), vehicle: saline) was 0 of 6 on day 15.
With `CS(=O)(=O)c1ncc(Br)cn1` the T/C (dose: 200.0 mg/kg/injection, schedule: Q01DX010 (sc), vehicle: saline with Tween-80, evaluated on day 11) was 132 % of control.
With `CC1(C)OCC2OC=CC(=O)C2O1` (centres undefined) the survivor count (dose: 1200.0 mg/kg/injection, schedule: Q04DX004 (sc), vehicle: saline with Tween-80) was 0 of 6 on day 15.
In the case of `COc1cccc2c1C(=O)c1c(O)c3c(c(O)c1C2=O)C[C@@](O)(/C(C)=N\O)C[C@@H]3OC1CC(N)C(O)C(C)O1` (some centres undefined), the survivor count (dose: 100.0 mg/kg/injection, schedule: Q04DX004 (sc), vehicle: saline) is reported as 0 of 6 on day 15.
`C[N+](C)(C)c1ncnc2nc[nH]c12` was tested, and the survivor count (dose: 400.0 mg/kg/injection, schedule: Q01DX010 (sc), vehicle: saline) was 0 of 3 on day 11.
With `C=C(C)C(=O)O[C@H]1CC2=C[C@@H](C[C@@]3(C)O[C@@H]3[C@H]3OC(=O)C(=C)[C@@H]31)OC2=O` the survivor count (dose: 300.0 mg/kg/injection, schedule: Q04DX004 (sc), vehicle: Klucel (hydroxypropylcellulose) (HPC)) was 3 of 6 on day 15 and the survivor count (dose: 600.0 mg/kg/injection, schedule: Q04DX004 (sc), vehicle: Klucel (hydroxypropylcellulose) (HPC)) was 2 of 6 on day 15.
In the case of `Cc1c(N)nc([C@H](CC(N)=O)NC[C@H](N)C(N)=O)nc1C(=O)N[C@H](C(=O)N[C@H](C)[C@@H](O)[C@H](C)C(=O)N[C@H](C(=O)NCCc1nc(-c2nc(C(=O)NCCC[S+](C)C)cs2)cs1)[C@@H](C)O)C(OC1OC(CO)C(O)C(O)C1OC1OC(CO)C(O)C(OC(N)=O)C1O)c1cnc[nH]1` (some centres undefined), the T/C (dose: 16.0 mg/kg/injection, schedule: Q04DX004 (ip), vehicle: saline, evaluated on day 15) is reported as 39, 86, 98, 161 % of control, the T/C (dose: 24.0 mg/kg/injection, schedule: Q04DX004 (ip), vehicle: saline, evaluated on day 15) is reported as 51, 104, 120 [5 of 6 alive on day 15], 181 % of control and the T/C (dose: 36.0 mg/kg/injection, schedule: Q04DX004 (ip), vehicle: saline, evaluated on day 15) is reported as 37, 72, 82, 114 % of control.
With `COC1=C(OC)C(=O)C(SC/C=C(\C)CCCC(C)CCCC(C)CCCC(C)C)=CC1=O` (centres undefined) the survivor count (dose: 2400.0 mg/kg/injection, schedule: Q04DX004 (ip), vehicle: saline with Tween-80) was 2 of 6 on day 15.
In the case of `Cc1cc(N(CC(C)Br)CC(C)Br)ccc1N=Nc1ccccc1C(=O)O` (centres undefined), the survivor count (dose: 25.0 mg/kg/injection, schedule: Q01DX010 (sc), vehicle: saline with Tween-80) is reported as 2 of 6 on day 11.
For `COC(=O)[C@@]12OC[C@]34[C@H]([C@@H](O)[C@@H]1O)[C@@]1(C)CC(=O)C(O)=C(C)[C@@H]1C[C@H]3OC(=O)[C@H](OC(=O)/C=C(\C)C(C)C)[C@@H]24`, the survivor count (dose: 1.0 mg/kg/injection, schedule: Q01DX010 (sc), vehicle: saline + alcohol) was 0 of 3 on day 11, the survivor count (dose: 2.0 mg/kg/injection, schedule: Q01DX010 (sc), vehicle: saline + alcohol) was 0 of 3 on day 11 and the survivor count (dose: 4.0 mg/kg/injection, schedule: Q01DX010 (sc), vehicle: saline + alcohol) was 0 of 3 on day 11.
